Binding data for eight molecules are collected here from US20200347127A1.

Common to all, as to assay: specificity ELISA on coated antigen, VH concentration not given
Assay [1] concerns the target IL17B.
Assay [2] concerns the target IL17D.
Assay [3] has as its target KLH.
The target in assay [4] is cynoIL17 (cynomolgus monkey).

Results are given in words; binding and its absence hold for the method and conditions named. For some assays here: Binding can be weak; no strength is given. Tags and fused reporters may be left off the sequences shown.

B1: VH 1.1.1 (clone 1.1 expressed from phagemid vector: with linker residues and His tag) (VHH)
VHH: EVQLVESGGGLVQPGGSLRLSCAASGFTFSSYSMYWVRQAPGKGLEWVANIKQDGSEKYYVDSVKGRFTISRDNAKNSLFLQMNSLRAEDTAVYYCAKGEILPLHFDYWGQGTLVTVSS
In the case of B1, the binding entry in assay [1] was “no binding”; in assay [2], “no binding”; in assay [3], “no binding”; in assay [4] it was “binds”.

B2: VH 1.6.1 (clone 1.6 expressed from phagemid vector: with linker residues and His tag) (VHH)
VHH: EVQLVESGGGLVQPGGSLRLSCAASGFTFSSYSMYWVRQAPGKGLEWVAEIKQDGSEQYYVDSVKGRFTISRDNAKNSLYLQMNSLRAEDTAVYYCAKGEILPLYFDYWGQGTLVTVSS
On to B2, for which the binding result in assay [1] is recorded as “no binding”; in assay [2] it was “no binding”; in assay [3], “no binding”; in assay [4] it was “binds”.

B3: VH 1.10.1 (clone 1.10 expressed from phagemid vector: with linker residues and His tag) (VHH)
VHH: EVQLVESGGGLVQPGGSLRLSCAASGFTFSSYRMYWVRQAPGKGLEWVASIEQDGSEEYYVDSVKGRFTISRDNAKKSLFLQMNSLRAEDTAVYYCAKGEILPLYFDYWGQGTLVTVSS
Take B3: the binding result in assay [1] is recorded as “no binding”; in assay [2], “no binding”; in assay [3], “no binding”; in assay [4], “binds”.

B4: VH 1.3.1 (clone 1.3 expressed from phagemid vector: with linker residues and His tag) (VHH)
VHH: EVQLVESGGGLVQPGGSLRLSCAASGFTFSSYSMYWVRQAPGKGLEWVAEIKQDGSVQYYVDSVKGRFTISRDNAKNSLYLQMNSLRAEDTAVYYCAKGEILPLYFDYWGQGTLVTVSS
With B4, in assay [3], the binding entry is given as “no binding”.

B5: VH 1.20.1 (clone 1.20 expressed from phagemid vector: with linker residues and His tag) (VHH)
VHH: EVQLVESGGGLVQPGGSLRLSCAASGFTFSSYGMYWVRQAPGKGLEWVAKIEQDGSEEYYADSVKGRFTISRDNAKKSLYLQMNSLRAEDTAVYYCAKGEILPLYFDYWGQGTLVTVSS
Consider B5, for which the binding entry in assay [3] is given as “no binding”.

B6: VH 1.16.1 (clone 1.16 expressed from phagemid vector: with linker residues and His tag) (VHH)
VHH: EVQLVESGGGLVQPGGSLRLSCAASGFTFSSYSMYWVRQAPGKGLEWVAEIKQDGSEQYYVDSVKGRFTISRDNAKNSLYLQMNGLRAEDTAVYYCAKGEILPLYFDYWGQGTLVTVSS
With B6, in assay [3], the binding entry is listed as “no binding”.

B7: Clone 1.15 (VHH)
VHH: EVQLVESGGGLVQPGGSLRLSCAASGFTFSSYSMYWVRQAPGKGLEWVAEIRQDGSEQYYVDSVKGRFTISRDNAKNSLYLQMNSLRAEDTAVYYCAKGEILPLYFDYWGQGTLVTVSS
With B7, in assay [3], the binding entry is “no binding”.

B8: VH 1.19.1 (clone 1.19 expressed from phagemid vector: with linker residues and His tag) (VHH)
VHH: EVQLVESGGGLVQPGGSLRLSCATSGFTFSSYGMYWVRQAPGKGLEWVAEIKQDGSEKYYVDSVKGRFTISRDNAKNSLYLQMNSLRAEDTAVYYCAKGEILPLYFDYWGQGTLVTVSS
Turning to B8, in assay [3], the binding result is “no binding”.
